In US20060234285A1 (Human Genome Sciences, published 2006):
No constants are given. Whether binding was seen depends on the method and setting. Some binding calls cover weakened binding; strength is not graded here.

Amino acid sequences for entries named in this document (tags omitted). Residues count along the entry.
UniProt O43557: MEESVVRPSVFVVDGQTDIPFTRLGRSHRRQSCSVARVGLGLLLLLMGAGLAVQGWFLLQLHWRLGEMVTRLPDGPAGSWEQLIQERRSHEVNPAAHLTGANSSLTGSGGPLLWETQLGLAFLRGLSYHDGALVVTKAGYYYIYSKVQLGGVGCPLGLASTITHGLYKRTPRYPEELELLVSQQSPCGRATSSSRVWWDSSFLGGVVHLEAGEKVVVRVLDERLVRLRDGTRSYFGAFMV
UniProt P36941, residues 31-227: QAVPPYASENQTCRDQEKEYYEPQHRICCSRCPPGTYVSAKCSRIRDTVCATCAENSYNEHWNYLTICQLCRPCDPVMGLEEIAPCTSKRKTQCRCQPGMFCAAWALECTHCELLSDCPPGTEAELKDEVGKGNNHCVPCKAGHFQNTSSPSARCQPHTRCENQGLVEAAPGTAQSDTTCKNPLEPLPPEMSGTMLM

Molecular target: AIM-II, full sequence, on stably transfected HEK 293 EBNA cells (UniProt O43557)
Assay: flow cytometry on AIM-II-transfected HEK 293 EBNA cells

binding: binds
Substance: LTβR-Fc (from UniProt P36941 31-227) (Fc fusion)
